No constants are given. Whether binding was seen depends on the method and setting.
Biological target: T1, Pto (UniProt Q40234)
T1 sequence: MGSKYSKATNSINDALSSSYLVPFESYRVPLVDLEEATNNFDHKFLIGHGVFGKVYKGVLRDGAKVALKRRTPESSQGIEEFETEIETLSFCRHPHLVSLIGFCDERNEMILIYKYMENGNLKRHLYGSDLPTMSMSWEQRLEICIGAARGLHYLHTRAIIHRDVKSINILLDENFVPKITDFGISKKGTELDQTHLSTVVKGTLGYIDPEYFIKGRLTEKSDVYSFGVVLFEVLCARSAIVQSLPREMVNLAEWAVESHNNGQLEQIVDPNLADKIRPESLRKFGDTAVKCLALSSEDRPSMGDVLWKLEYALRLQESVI
Test: two-hybrid

binding: no binding
Substance: SlMai1 in the yeast two-hybrid assay with Pto (tomato (Solanum lycopersicum))

From doi:10.1101/529172
